For at least one compound, name, drawing or mass did not settle the structure.
Molecular target: PI3 Kinase
Experiment: PI3K fluorescence polarization assay
Assay type: biochemical
Settings: 25 μM ATP, diC8-PI(4,5)P2 substrate, 1 hour at 25° C.; read-out: PI3 Kinase Median IC50

In the case of Oc1cccc(-c2nc(N3CCOCC3)c3ncn(C4CCN(Cc5ccc(Br)nc5)CC4)c3n2)c1 [Compound 81, 3-(9-{1-[(6-bromopyridin-3-yl)methyl]piperidin-4-yl}-6-morpholin-4-yl-9H-purin-2-yl)phenol], the IC50 is reported as 49 nM.

— US20080233127A1, “IMIDAZOLOPYRIMIDINE ANALOGS AND THEIR USE AS PI3 KINASE AND MTOR INHIBITORS” (Wyeth, priority 2007, published 2008)
